Experimental data taken from the supplement of paper PMC6411743.
± gives the standard deviation of the averaged measurements. Some of the results follow.

Protein sequences, listed by entry. Tags and fused reporters are not part of them. Lines headed by an entry give the natural chain unless they say otherwise; changes in a name come on top.
UniProt Q9UHQ4: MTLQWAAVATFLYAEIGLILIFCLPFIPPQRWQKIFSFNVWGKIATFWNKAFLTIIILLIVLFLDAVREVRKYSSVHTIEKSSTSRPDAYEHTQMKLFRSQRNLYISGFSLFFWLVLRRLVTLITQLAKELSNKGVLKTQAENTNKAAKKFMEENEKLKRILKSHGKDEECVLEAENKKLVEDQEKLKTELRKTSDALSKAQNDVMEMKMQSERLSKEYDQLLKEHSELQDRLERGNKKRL
UniProt O75817: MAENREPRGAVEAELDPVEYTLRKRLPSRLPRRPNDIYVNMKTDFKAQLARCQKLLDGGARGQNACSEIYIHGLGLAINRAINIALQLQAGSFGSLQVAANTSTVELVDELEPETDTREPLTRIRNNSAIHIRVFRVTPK
UniProt P55209: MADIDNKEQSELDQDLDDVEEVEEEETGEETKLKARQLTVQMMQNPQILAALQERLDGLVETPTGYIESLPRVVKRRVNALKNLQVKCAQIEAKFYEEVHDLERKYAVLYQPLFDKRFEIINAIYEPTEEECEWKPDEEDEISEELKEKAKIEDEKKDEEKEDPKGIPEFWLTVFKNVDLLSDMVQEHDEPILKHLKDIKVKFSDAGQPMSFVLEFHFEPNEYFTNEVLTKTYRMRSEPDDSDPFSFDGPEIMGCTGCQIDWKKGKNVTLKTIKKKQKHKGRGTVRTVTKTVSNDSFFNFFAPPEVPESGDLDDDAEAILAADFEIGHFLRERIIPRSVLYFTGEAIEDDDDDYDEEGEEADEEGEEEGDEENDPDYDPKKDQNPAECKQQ
UniProt Q53GS9: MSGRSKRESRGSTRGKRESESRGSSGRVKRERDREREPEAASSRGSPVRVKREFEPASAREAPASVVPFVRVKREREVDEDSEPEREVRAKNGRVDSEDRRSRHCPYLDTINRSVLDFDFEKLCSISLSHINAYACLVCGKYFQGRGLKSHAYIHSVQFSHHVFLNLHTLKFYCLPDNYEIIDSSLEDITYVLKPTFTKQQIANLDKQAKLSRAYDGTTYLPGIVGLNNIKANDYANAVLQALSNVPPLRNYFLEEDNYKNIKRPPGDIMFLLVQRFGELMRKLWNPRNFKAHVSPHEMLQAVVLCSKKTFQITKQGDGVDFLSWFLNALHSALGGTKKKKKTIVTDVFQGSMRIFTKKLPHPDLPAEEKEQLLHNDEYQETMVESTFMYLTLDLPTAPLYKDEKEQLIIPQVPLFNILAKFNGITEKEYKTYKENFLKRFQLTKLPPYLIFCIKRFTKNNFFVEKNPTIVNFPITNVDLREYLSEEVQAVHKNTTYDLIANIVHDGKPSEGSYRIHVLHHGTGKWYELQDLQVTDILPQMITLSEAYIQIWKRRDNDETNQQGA
UniProt P63098, whole entry, looked up: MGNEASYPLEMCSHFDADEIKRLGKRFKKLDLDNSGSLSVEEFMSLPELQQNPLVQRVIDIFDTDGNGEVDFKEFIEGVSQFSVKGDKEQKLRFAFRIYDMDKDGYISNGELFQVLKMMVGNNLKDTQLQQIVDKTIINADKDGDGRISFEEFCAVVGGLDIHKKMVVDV
UniProt Q9Y6X4: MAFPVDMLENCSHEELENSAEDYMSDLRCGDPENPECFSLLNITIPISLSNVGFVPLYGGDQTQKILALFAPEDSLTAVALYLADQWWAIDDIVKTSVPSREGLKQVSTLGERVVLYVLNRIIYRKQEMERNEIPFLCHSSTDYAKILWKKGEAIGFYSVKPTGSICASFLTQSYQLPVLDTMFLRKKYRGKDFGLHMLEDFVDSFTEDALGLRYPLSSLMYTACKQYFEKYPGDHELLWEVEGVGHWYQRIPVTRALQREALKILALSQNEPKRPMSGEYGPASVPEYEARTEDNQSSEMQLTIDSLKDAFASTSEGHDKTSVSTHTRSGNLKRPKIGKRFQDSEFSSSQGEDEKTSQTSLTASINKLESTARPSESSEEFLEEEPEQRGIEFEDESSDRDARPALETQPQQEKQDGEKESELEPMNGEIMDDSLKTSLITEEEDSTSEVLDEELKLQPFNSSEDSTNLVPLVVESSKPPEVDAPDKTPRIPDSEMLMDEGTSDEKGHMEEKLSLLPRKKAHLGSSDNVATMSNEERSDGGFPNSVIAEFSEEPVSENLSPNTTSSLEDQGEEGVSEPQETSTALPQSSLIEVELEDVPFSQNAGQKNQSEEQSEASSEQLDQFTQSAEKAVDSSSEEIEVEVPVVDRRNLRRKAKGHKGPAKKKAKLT
UniProt P30305: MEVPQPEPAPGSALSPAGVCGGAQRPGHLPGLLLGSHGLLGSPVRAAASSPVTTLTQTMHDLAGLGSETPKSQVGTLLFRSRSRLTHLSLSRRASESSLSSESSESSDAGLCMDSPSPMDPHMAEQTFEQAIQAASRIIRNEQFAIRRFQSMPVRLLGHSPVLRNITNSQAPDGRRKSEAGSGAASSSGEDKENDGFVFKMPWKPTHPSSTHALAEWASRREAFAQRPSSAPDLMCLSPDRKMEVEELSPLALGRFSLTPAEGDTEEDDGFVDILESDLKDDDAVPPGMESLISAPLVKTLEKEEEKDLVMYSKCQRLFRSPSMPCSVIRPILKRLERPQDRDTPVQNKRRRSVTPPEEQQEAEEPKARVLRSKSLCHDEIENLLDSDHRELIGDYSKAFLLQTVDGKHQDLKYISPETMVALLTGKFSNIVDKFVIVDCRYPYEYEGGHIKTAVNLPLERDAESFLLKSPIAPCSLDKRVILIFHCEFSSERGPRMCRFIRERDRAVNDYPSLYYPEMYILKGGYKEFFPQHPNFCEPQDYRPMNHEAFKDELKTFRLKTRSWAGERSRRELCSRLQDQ
UniProt Q9BVT8: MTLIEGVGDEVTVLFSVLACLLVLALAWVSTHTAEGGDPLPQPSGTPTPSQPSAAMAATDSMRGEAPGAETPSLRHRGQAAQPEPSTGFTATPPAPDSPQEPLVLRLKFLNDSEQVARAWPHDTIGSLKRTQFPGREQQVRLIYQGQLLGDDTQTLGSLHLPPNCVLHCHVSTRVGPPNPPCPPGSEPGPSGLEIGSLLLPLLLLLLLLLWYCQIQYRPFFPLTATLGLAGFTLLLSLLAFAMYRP
UniProt Q9NQ29: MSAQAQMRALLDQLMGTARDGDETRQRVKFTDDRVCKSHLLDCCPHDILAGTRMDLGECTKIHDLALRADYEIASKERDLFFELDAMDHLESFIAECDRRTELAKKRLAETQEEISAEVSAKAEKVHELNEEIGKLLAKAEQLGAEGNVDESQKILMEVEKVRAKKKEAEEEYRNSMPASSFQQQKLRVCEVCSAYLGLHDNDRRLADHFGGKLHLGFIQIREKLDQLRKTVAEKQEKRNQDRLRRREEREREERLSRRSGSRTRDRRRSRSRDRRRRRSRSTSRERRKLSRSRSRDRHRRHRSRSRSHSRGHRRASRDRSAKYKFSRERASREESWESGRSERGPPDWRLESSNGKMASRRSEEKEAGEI
UniProt Q9H446: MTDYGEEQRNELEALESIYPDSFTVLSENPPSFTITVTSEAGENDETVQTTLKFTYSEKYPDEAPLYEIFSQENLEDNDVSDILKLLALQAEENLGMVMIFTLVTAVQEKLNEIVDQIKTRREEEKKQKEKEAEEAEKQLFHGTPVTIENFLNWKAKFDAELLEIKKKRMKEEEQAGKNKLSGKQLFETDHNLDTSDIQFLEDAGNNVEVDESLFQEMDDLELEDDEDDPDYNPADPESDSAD
UniProt Q14202: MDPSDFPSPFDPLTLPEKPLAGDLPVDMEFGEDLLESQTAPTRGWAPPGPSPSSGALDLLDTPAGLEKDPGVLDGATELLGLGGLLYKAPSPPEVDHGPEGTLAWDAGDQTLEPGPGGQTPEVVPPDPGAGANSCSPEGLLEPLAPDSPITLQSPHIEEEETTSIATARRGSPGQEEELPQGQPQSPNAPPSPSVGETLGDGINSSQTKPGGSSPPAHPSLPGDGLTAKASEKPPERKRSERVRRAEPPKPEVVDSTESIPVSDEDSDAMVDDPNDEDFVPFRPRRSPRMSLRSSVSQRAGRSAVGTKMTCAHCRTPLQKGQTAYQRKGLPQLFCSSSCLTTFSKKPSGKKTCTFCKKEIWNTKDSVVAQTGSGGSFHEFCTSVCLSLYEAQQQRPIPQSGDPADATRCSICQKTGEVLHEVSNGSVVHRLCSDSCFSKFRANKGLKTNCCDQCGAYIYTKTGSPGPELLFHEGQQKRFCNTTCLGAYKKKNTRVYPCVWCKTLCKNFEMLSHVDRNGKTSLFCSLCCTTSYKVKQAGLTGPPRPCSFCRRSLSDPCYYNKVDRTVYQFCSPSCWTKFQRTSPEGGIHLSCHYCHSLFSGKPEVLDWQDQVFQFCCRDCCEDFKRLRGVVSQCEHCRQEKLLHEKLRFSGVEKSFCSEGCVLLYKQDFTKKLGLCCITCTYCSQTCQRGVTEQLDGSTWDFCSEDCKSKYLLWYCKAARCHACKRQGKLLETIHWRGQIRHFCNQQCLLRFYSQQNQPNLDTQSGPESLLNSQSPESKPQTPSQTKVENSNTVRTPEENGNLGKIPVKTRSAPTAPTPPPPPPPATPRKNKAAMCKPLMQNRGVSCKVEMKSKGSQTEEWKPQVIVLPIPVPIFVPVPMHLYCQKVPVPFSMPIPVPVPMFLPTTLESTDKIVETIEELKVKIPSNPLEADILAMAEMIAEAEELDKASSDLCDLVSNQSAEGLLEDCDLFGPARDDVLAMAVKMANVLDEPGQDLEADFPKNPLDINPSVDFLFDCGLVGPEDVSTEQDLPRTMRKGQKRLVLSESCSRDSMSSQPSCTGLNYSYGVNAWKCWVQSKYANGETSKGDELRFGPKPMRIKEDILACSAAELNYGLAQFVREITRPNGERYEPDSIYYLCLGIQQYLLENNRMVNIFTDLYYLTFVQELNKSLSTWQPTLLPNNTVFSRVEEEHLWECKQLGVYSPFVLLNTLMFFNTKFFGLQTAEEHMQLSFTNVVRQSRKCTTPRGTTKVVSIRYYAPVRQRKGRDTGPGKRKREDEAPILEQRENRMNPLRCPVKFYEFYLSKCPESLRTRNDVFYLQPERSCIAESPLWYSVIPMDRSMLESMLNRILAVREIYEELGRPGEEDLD
UniProt Q8TCN5: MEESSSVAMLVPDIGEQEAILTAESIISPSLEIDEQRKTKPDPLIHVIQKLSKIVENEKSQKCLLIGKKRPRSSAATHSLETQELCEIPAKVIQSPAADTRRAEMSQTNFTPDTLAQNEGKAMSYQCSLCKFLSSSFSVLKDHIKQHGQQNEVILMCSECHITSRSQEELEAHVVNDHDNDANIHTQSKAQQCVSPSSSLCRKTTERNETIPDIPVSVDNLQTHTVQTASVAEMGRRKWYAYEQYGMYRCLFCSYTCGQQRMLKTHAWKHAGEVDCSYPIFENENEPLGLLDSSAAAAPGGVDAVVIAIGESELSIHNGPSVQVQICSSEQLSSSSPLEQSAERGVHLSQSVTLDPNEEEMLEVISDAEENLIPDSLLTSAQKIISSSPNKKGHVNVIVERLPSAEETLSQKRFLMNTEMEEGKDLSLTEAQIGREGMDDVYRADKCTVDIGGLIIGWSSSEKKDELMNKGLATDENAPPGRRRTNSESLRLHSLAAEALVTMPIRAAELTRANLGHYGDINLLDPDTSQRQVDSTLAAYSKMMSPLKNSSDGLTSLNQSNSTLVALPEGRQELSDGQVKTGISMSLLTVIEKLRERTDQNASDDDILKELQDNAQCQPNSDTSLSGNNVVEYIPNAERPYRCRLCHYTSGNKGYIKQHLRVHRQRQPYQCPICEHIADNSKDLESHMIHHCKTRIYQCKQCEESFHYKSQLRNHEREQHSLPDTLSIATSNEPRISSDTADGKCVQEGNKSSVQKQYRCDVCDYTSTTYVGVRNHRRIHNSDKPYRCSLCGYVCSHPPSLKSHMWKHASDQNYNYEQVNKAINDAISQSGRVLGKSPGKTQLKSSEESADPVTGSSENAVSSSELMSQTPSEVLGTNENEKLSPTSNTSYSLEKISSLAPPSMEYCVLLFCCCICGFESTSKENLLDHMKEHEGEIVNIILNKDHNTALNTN

Compound: Nc1nc2c(ncn2[C@@H]2O[C@H](COP(=O)(O)OP(=O)(O)OP(=O)(O)O)[C@@H](O)[C@H]2O)c(=O)[nH]1 [guanosine triphosphate]
Assay: NP40-soluble protein abundance relative to vehicle (solubility fold change) (ratio); higher = more soluble protein in presence of GTP
Procedure, shortened: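 Values are fold changes against the detergent-processed vehicle, based on vsn-normalised intensities. Jurkat crude lysate was treated at eight concentrations from 0.1 to 10 mM (10 min at room temperature, then 3 min at 37 °C), solubilised with 0.8% NP40 and benzonase, ultracentrifuged and analysed by TMT-labelled LC-MS/MS over three independent experiments.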

Target | NP40-soluble protein abundance (concentration: 0.1mM) | NP40-soluble protein abundance (concentration: 0.5mM) | NP40-soluble protein abundance (concentration: 1mM) | NP40-soluble protein abundance (concentration: 2mM) | NP40-soluble protein abundance (concentration: 4mM) | NP40-soluble protein abundance (concentration: 6mM) | NP40-soluble protein abundance (concentration: 8mM) | NP40-soluble protein abundance (concentration: 10mM)
B7Z2L0 and related entries (UniProt Q9UHQ4) | 0.927 ± 0.066 | 0.956 ± 0.071 | 0.975 ± 0.051 | 0.937 ± 0.097 | 0.93 ± 0.066 | 0.918 ± 0.058 | 0.972 ± 0.059 | 0.99 ± 0.071
C9JYM0 and related entries (UniProt O75817) | 0.958 ± 0.11 | 0.989 ± 0.077 | 1.06 ± 0.046 | 1.06 ± 0.092 | 1.15 ± 0.092 | 1.17 ± 0.077 | 1.17 ± 0.037 | 1.21 ± 0.12
A6ND22 and related entries (UniProt Q9Y3D3) | 0.998 ± 0.086 | 1.03 ± 0.079 | 1.13 ± 0.2 | 1.25 ± 0.29 | 1.23 ± 0.34 | 1.2 ± 0.35 | 1.04 ± 0.2 | 1.13 ± 0.3
B7Z9C2 and related entries (UniProt P55209) | 0.943 ± 0.1 | 0.979 ± 0.083 | 0.929 ± 0.083 | 0.934 ± 0.093 | 0.924 ± 0.11 | 0.928 ± 0.073 | 0.946 ± 0.09 | 0.965 ± 0.1
B9A018 and related entries (UniProt Q53GS9) | 1.06 ± 0.041 | 1.1 ± 0.073 | 1.04 ± 0.057 | 1.11 ± 0.13 | 1.17 ± 0.086 | 1.2 ± 0.088 | 1.21 ± 0.016 | 1.21 ± 0.12
D3YTA9 and related entries (UniProt H7BYZ3+F6U1T9+P63098+D3YTA9) | 0.935 ± 0.039 | 0.906 ± 0.038 | 0.9516 ± 0.0055 | 0.95 ± 0.024 | 0.934 ± 0.02 | 0.927 ± 0.047 | 0.918 ± 0.072 | 0.95 ± 0.04
D6RB01 and related entries (UniProt Q9Y6X4) | 0.939 ± 0.15 | 0.949 ± 0.16 | 0.989 ± 0.14 | 0.906 ± 0.16 | 0.913 ± 0.12 | 0.918 ± 0.12 | 0.939 ± 0.15 | 0.959 ± 0.14
A8MQB8 and related entries (UniProt Q06787) | 1.05 ± 0.041 | 1.15 ± 0.048 | 1.05 ± 0.065 | 1.24 ± 0.0061 | 1.41 ± 0.093 | 1.71 ± 0.037 | 1.8 ± 0.048 | 2.1 ± 0.11
B4DIG0 and related entries (UniProt P30305) | 1.04 ± 0.13 | 1 ± 0.014 | 0.98 ± 0.1 | 0.994 ± 0.06 | 1 ± 0.17 | 0.961 ± 0.11 | 1.02 ± 0.011 | 0.962 ± 0.035
C9JCW7 and related entries (UniProt Q9BVT8) | 0.979 ± 0.088 | 0.895 ± 0.089 | 1.01 ± 0.1 | 0.968 ± 0.11 | 0.931 ± 0.065 | 0.983 ± 0.12 | 0.942 ± 0.055 | 0.932 ± 0.083
B8ZZ10 and related entries (UniProt Q9NQ29) | 1.26 ± 0.045 | 1.75 ± 0.11 | 1.91 ± 0.18 | 1.95 ± 0.12 | 1.98 ± 0.12 | 2.09 ± 0.14 | 2.21 ± 0.28 | 2.22 ± 0.28
E5RGS5 and related entries (UniProt Q9H446) | 0.955 ± 0.18 | 0.964 ± 0.12 | 0.903 ± 0.13 | 0.886 ± 0.15 | 0.852 ± 0.13 | 0.852 ± 0.12 | 0.865 ± 0.094 | 0.847 ± 0.1
A6NHB5 and related entries (UniProt Q14202) | 1.08 ± 0.056 | 1.12 ± 0.075 | 1.18 ± 0.092 | 1.31 ± 0.14 | 1.37 ± 0.16 | 1.4 ± 0.15 | 1.46 ± 0.15 | 1.42 ± 0.16
D4Q8H0 and related entries (UniProt Q9NYL2+D4Q8H0) | 1.07 ± 0.079 | 1.03 ± 0.12 | 0.947 ± 0.051 | 0.965 ± 0.051 | 0.987 ± 0.073 | 1.05 ± 0.024 | 0.93 ± 0.14 | 0.981 ± 0.081
C9JKQ7 and related entries (UniProt P22102) | 0.96 ± 0.015 | 0.985 ± 0.03 | 0.9188 ± 0.0076 | 0.909 ± 0.023 | 0.895 ± 0.026 | 0.894 ± 0.017 | 0.863 ± 0.039 | 0.863 ± 0.022
B9EGE7 and related entries (UniProt Q8TCN5) | 0.964 ± 0.013 | 0.98 ± 0.032 | 1.03 ± 0.015 | 1.03 ± 0.023 | 1.03 ± 0.02 | 1.01 ± 0.028 | 1 ± 0.034 | 1.01 ± 0.053

Individual results from the entries so far.
NP40-soluble protein abundance (concentration: 10mM) with C9JCW7 and related entries (UniProt Q9BVT8) reads 0.932 ± 0.083
NP40-soluble protein abundance (concentration: 4mM) with B9EGE7 and related entries (UniProt Q8TCN5) reads 1.03 ± 0.02
